Measured values published in PubChem BioAssay AID1671190 (National Center for Advancing Translational Sciences (NCATS), 2021).
Several values for one entry are separate records, joined by “and”; a condition that tells them apart may be missing. Identical values can stand only once. The campaign covered roughly 580,000 compounds. About 6,100 (1.1%) were called active. The inconclusive results got no clear call from the source; some entries with a clear call stand among them for comparison. Calls follow the shape of the dose curve; as a rule, active = well fitted inhibition curve with a large enough effect; inconclusive = small, poorly fitted or top-dose-only effect, or another doubt; inactive = no such curve, though single readings can be large or run the other way. Where the call is inconclusive, the potency comes from a doubtful curve fit.

The chains behind the UniProt entries cited, without tags or fusion partners. Where a name states a change or a piece, a line headed by the entry shows the natural chain unless it says otherwise.
UniProt P18054: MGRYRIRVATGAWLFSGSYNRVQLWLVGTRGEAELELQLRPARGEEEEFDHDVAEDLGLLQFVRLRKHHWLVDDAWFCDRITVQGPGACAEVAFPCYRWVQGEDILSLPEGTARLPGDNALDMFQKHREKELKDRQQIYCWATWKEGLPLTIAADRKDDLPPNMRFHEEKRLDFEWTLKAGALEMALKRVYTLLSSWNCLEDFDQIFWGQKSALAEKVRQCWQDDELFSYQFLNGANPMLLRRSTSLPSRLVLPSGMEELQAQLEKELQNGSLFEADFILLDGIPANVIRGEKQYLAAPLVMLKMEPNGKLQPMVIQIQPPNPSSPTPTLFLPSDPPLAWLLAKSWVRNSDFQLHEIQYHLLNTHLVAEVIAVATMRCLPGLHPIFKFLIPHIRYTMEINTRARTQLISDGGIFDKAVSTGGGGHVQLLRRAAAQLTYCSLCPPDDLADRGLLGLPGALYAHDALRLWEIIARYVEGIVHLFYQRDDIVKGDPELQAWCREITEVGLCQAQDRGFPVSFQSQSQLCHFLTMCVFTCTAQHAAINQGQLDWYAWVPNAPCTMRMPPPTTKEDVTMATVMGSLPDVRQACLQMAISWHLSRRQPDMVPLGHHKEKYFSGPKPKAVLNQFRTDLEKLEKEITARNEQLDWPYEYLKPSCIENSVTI

Biological target: Polyunsaturated fatty acid lipoxygenase ALOX12 (Homo sapiens) (UniProt P18054)
Experiment: Primary qHTS assay for inhibitors of human arachidonate 12S-lipoxygenase (ALOX12): Round 2
Settings: purified 12hLO, xylenol orange hydroperoxide absorbance; series mostly up to 108 µM
Method in brief: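 Purified human 12hLO (150 nM final) in 25 mM Hepes, 0.01% Triton X-100, pH 7.0 was preincubated 15 min at room temperature with compound. Then 40 uM arachidonic acid was added, 30 min. Hydroperoxide was read by Fe-XO absorbance ratio 573/405 nm.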
Potency is read from the fitted curve at half-maximal effect.

Compound | Potency
CN(CC(=O)Nc1ccccc1Cl)CC(=O)N1CCC(Cc2ccccc2)CC1 | inactive
CCC(=O)Nc1sc2c(c1C(=O)Nc1ccc(Br)cc1)CCCCC2 | inactive
CC1=CC(=O)C=CC1=Nc1ccc(N(C)C)cc1 | active: 7.94 µM
CC(C)Oc1cc(NC(=O)CS(=O)CC(=O)Nc2cccc(C(F)(F)F)c2)c(Cl)cc1Cl (configuration not stated) | inconclusive: 89.1 µM [inhibitor, partial curve, poor fit]
CCOC(=O)c1sc(NC(=O)C(C)C)c(C#N)c1C | inactive
CC[C@]12c3[nH]c4cc(-c5ccco5)ccc4c3CCN1C(=O)[C@@H](CC(=O)NCc1ccc(OC)c(OC)c1)C[C@@H]2C(=O)N1CCN(C(=O)c2ccco2)CC1 | inconclusive: 35.5 µM [inhibitor, partial curve, poor fit]
Cc1c(NCc2nc(-c3ccco3)no2)cccc1-n1cnnn1 | inactive
O=C(Nc1ccc2c(c1)nc1n2CCN(Cc2ccccc2)C1)NC1CCCCC1 | inactive
Cc1cc(/C=C/C(=O)c2cccc(Cl)c2)cc(C)c1O | inconclusive: 44.7 µM [inhibitor, partial curve, poor fit]
C=CCN1C(=O)C(CC(=O)Nc2ccc(OCCC)cc2)N(CCCN2CCN(Cc3ccccc3)CC2)C1=S (configuration not stated) | inconclusive: 100 µM [inhibitor, single point]
CCOc1ccc(NC(=O)CN(C)C(=O)C2CCN(C(=O)Nc3ccccc3)CC2)cc1OCC | inactive
CC(=O)Nc1ccc(C(=O)CSc2ccc(Cl)cc2)cc1 | inconclusive: 44.7 µM [inhibitor, partial curve, poor fit]
O=C(CN1CCCC1)N1CC[C@@H](c2ccc3ccccc3c2)[C@H](O)C1 | inactive
COc1ccc(Nc2cc(C(=O)NCCCN3CCOCC3)c3ccccc3n2)cc1 | inactive
O=C(Cc1ccc2c(c1)CCCC2)NC1CCCC1 | inconclusive: 112 µM [inhibitor, single point]
COc1ccc(CC(=O)NCc2nn(-c3ccccc3)nc2C)cc1OC | inactive
O=C1C(=O)N(CCO)C(c2ccc(Br)cc2)/C1=C(\O)c1ccccc1 (configuration not stated) | inconclusive: 39.8 µM [inhibitor, partial curve, poor fit]
c1nnc(NC2=NCCCCC2)s1 | inactive
COc1ccc(S(=O)(=O)N2CCn3cccc3C2c2cccs2)cc1C (configuration not stated) | inconclusive: 44.7 µM [inhibitor, partial curve, poor fit]
CCCCNC(=O)CN1CCN(c2ncc(NC(=O)c3ccc(Cl)cc3)cc2C(=O)O)CC1 | active: 35.5 µM
COc1cc(NC(=O)C2CCN(c3nc4ccccc4nc3C(F)(F)F)CC2)cc(OC)c1 | inactive
CN(C(=S)NC(=O)C1(C)CC1(Cl)Cl)c1ccccc1 (configuration not stated) | inactive
CN(C)c1ncnc2c1C(c1ccccc1)C(C)(C)O2 (configuration not stated) | inconclusive: 89.1 µM [inhibitor, single point]

Compound | Potency
CCOC(=O)C1=C(C)NC(C)=C(C(=O)OCC)C1c1ccc([N+](=O)[O-])s1 | inconclusive: 50.1 µM [inhibitor, single point] and inconclusive: 50.1 µM [inhibitor, partial curve, poor fit]
Cc1ccc(CNC(=O)CC2C=CCC2)s1 (configuration not stated) | inactive
Cc1ccc(CNc2nc3ccccc3nc2NS(=O)(=O)c2cccc(Cl)c2)cc1 | inactive
CCCn1c(SCC(=O)Nc2ccccc2CC)nnc1C(C)C | inactive
CCc1ccc(S(=O)(=O)NCCc2coc(-c3ccccc3)n2)cc1 | inconclusive: 50.1 µM [inhibitor, partial curve, poor fit]
CCN(CC)CCNC(=O)c1sc2ncccc2c1-n1c(C)ccc1C | inconclusive: 31.6 µM [inhibitor, full curve, poor fit]
Cn1ncc(C(N)=O)c1NC(=S)NC(=O)c1ccc(Br)o1 | inconclusive: 50.1 µM [inhibitor, partial curve, poor fit]
CCOC(=O)c1ccc(NC(=S)N(CCO)Cc2ccccc2)cc1 | inconclusive: 3.98 µM [inhibitor, full curve, poor fit]
COc1ccc(CCNC(=O)c2cc[nH]c2C2CCCN(C(C)=O)C2)c(OC)c1 (configuration not stated) | inactive
CC(C)C[C@@H](CNCC(=O)[C@H](Cc1c[nH]c2ccccc12)NC(=O)c1[nH]cnc1C(=O)N[C@H](CN)CC(C)C)NC(=O)c1nc[nH]c1C(=O)N[C@@H](CC(=O)O)C(=O)O | inconclusive: 39.8 µM [inhibitor, partial curve, poor fit]
COc1cc(C2c3[nH]c4ccccc4c3C[C@H]3C(=O)N(CCO)CC(=O)N23)cc(OC)c1OC (some centres not stated) | inactive
CCN(CC)CCN(C(=O)c1ccc2ncsc2c1)c1nc2cc3c(cc2s1)OCO3 | inconclusive: 35.5 µM [inhibitor, partial curve, poor fit]
CCC1ON(C(C)C)C2c3nc4ccccc4n3CC12 (configuration not stated) | inconclusive: 0.501 µM [inhibitor, full curve, poor fit]
c1ccc2c(c1)C(=NC1CCCCC1)NC2=NC1CCCCC1 | active: 31.6 µM
CC(C)CC1=C/C(=C/c2ccc(-c3ccccc3)o2)C(=O)O1 | active: 12.6 µM
O=C(COc1coc(CN2CCc3ccccc3C2)cc1=O)Nc1cccc(Cl)c1 | inconclusive: 100 µM [inhibitor, single point]
Cc1cc2n(n1)CCC(=O)N2Cc1ccc(C(=O)Nc2cccc(C(F)(F)F)c2)cc1 | inconclusive: 39.8 µM [inhibitor, partial curve, poor fit]
CC(C)CCN1CCc2c(n(Cc3cccnc3)n(CCc3ccccc3)c2=O)C1 | inactive
Nc1nc(CN2CCN(Cc3ccc4c(c3)OCO4)CC2)nc(Nc2ccccc2)n1 | inconclusive: 126 µM [inhibitor, single point]
Cc1cc(C)c2nc(SCC(=O)Nc3sccc3C(N)=O)cc(C)c2c1 | inactive
O=C(Nc1ccc(F)cc1)c1cccc(N2C(=O)C3C4C=CC(C4)C3C2=O)c1 (configuration not stated) | inactive
COC(=O)c1ccc(COC(=O)c2ccc(Cl)cc2O)cc1 | inconclusive: 35.5 µM [inhibitor, partial curve, poor fit]
COC(=O)C1=C(C)N(c2cc(C)cc(C)c2)/C(=C/c2ccc(O)cc2)C1=O | inconclusive: 50.1 µM [inhibitor, partial curve, poor fit]

Compound | Potency
Cc1ccc(Nc2c(-c3ccc(C)cc3)nc3c(C)cccn23)cc1 | inconclusive: 2.82 µM [inhibitor, full curve, poor fit]
C[C@H](CO)N1C[C@H](C)[C@@H](CN(C)C(=O)Nc2ccccc2)Oc2ccc(NC(=O)CCC(F)(F)F)cc2C1=O | inconclusive: 35.5 µM [inhibitor, partial curve, poor fit]
Oc1ccccc1C1SC(c2ccccc2O)SC(c2ccccc2O)S1 (configuration not stated) | inconclusive: 50.1 µM [inhibitor, partial curve, poor fit]
CC(C)(C)C(=O)[C@@H]1[C@@H](C(=O)c2ccccc2)[C@@]2(C(=O)Nc3ccccc32)[C@H]2c3ccccc3C=CN12 | inconclusive: 31.6 µM [inhibitor, single point]
CC(C)(C)c1ccc2c(c1)OCCOCCOCCOc1cc(C(C)(C)C)ccc1OCCOCCOCCO2 | inconclusive: 44.7 µM [inhibitor, partial curve, poor fit]
CCOc1c(Br)cc(/C=C2\C(=O)N(CCC#N)N=C2C)cc1OC | inconclusive: 44.7 µM [inhibitor, partial curve, poor fit]
CCCCCCC#Cc1cncc(C(=O)NNC(=O)Nc2cc(Cl)cc(Cl)c2)c1 | inactive
Cc1cccc(Nc2nc(-c3ccncc3)cs2)c1 | inactive
Cc1nc(-c2ccc(F)cc2)c(CC(=O)N2CCN(S(=O)(=O)c3cccc(F)c3)CC2)s1 | inconclusive: 126 µM [inhibitor, partial curve, poor fit]
CCc1cccc(C)c1NC(=O)CCS(=O)(=O)c1ccc2c(c1)oc(=O)n2C | inconclusive: 20 µM [inhibitor, full curve]
CC(C)n1nnnc1SCCS(=O)(=O)c1cc(Cl)ccc1Cl | inconclusive: 44.7 µM [inhibitor, partial curve, poor fit]
CC(C)Oc1cccc(C(=O)NC(=S)Nc2cccc(NC(=O)c3ccccc3Cl)c2)c1 | active: 10 µM
N#Cc1ccsc1NC(=O)CN1CCCCCC1 | inconclusive: 3.98 µM [inhibitor, full curve, poor fit]
Cn1nc(C(=O)N2CCC(c3n[nH]c(=O)n3-c3ccccc3)CC2)c2ccccc21 | inconclusive: 15.8 µM [inhibitor, full curve, poor fit]
O=C(c1ccncc1)N1CCN(CC2CC=CCC2)CC1 (configuration not stated) | inconclusive: 0.708 µM [inhibitor, full curve, poor fit]
CCNc1nc(SC(C(C)=O)C(C)=O)nc(N(C)C)n1 | inconclusive: 4.47 µM [inhibitor, full curve, poor fit]
CCCN1C(=O)/C(=C2/C=Cc3ccccc3N2CC)SC1=S | inactive
Cc1cccnc1C(NC(=O)C1CCN(Cc2ccc(Oc3ccccc3)cc2)CC1)c1ccc(F)cc1 (configuration not stated) | inconclusive: 79.4 µM [inhibitor, partial curve, poor fit]
O=c1[nH]c(=S)[nH]c2c1C(c1ccc(Br)cc1)c1c([nH]c(=S)[nH]c1=O)O2 | active: 5.01 µM
CCOC(=O)c1c(C)nc2c(C)cccn12 | inactive
O=C(/C=C/c1ccc(Cl)cc1Cl)Nc1cccc(S(=O)(=O)NC2=NCCCCC2)c1 | inactive
